The list is a part of this screen's results and no random one: it gathers tests that were run many times, whatever their T/C, doses with no T/C, and many T/C values between a quarter and a half above the control. Other doses and runs of a compound stand elsewhere. T/C gives the treated animals as a percentage of the vehicle group. Some doses have a count of surviving animals in place of a T/C: the source holds a T/C of zero for them, seemingly a mark for toxic or unscored doses. Some doses without a T/C left all or most animals alive at the check, yet need not have been tolerated: survival well below the control is almost never listed, so the zero probably covers shortened survival too. Survivors were counted at the toxicity check, usually on the fifth day, unless a day is given; later deaths do not show. Schedule codes are those of the source, read here as Q, the interval in days (D) or hours (H), X, the number of doses. Some entries hold several experiments; the results are listed from low to high. Where survival is the endpoint, this PubChem deposit counts one and a half times the control or more as active, and values a quarter to a half above the control carry no call in these data; other NCI protocols may use other cut-offs. Some T/C values carry the count of animals alive at the toxicity check (mostly the fifth day); where none is given, no animal had died by that day.
Test system: L1210 leukemia ip in BDF1 mice, survival T/C
Assay: NCI In Vivo Anticancer Drug Screen. Data for tumor model L1210 Leukemia (intraperitoneal) in B6D2F1 (BDF1) mice
Conditions: T/C endpoint: mean survival time, higher T/C = longer survival

## COC(C(=O)C(O)C(C)O)C1CC2C=C3C=C(OC4CC(OC5CC(O)C(OC)C(C)O5)C(OC(C)=O)C(C)O4)C(C)C(=O)C3=C(O)C2=C(O)C1OC1CC(OC2CC(OC3CC(C)(O)C(OC(=O)C(C)C)C(C)O3)C(O)C(C)O2)C(O)C(C)O1 (stereo not drawn)
dose: 0.12 mg/kg/injection, schedule: Q01DX001 (ip), vehicle: other
  T/C: 127 % of control
dose: 1.0 mg/kg/injection, schedule: Q01DX001 (ip), vehicle: other
  T/C: 133 % of control [4 of 6 alive]
dose: 8.0 micrograms/kg/injection, schedule: Q01DX009 (ip), vehicle: saline
  T/C: 125 % of control
dose: 31.0 micrograms/kg/injection, schedule: Q01DX001 (ip), vehicle: saline
  T/C: 130 % of control
dose: 31.2 micrograms/kg/injection, schedule: Q01DX001 (ip), vehicle: saline
  T/C: 133 % of control
dose: 31.2 micrograms/kg/injection, schedule: Q01DX009 (ip), vehicle: saline
  survivor count: 10 of 10
dose: 31.2 micrograms/kg/injection, schedule: Q04DX003 (ip), vehicle: saline
  T/C: 131 % of control
dose: 31.2 micrograms/kg/injection, schedule: Q08DX002 (ip), vehicle: saline
  T/C: 136 % of control
dose: 32.0 micrograms/kg/injection, schedule: Q01DX009 (ip), vehicle: other
  T/C: 128 % of control
dose: 62.0 micrograms/kg/injection, schedule: Q01DX001 (ip), vehicle: saline
  T/C: 128 % of control
dose: 62.5 micrograms/kg/injection, schedule: Q01DX001 (ip), vehicle: saline, evaluated on day 30
  T/C: 137 % of control
dose: 62.5 micrograms/kg/injection, schedule: Q01DX001 (ip), vehicle: saline, evaluated on day 60
  T/C: 148 % of control
dose: 62.5 micrograms/kg/injection, schedule: Q01DX009 (ip), vehicle: saline
  survivor count: 9 of 10
dose: 62.5 micrograms/kg/injection, schedule: Q08DX002 (ip), vehicle: saline
  T/C: 146 % of control
dose: 75.0 micrograms/kg/injection, schedule: Q01DX009 (ip), vehicle: other
  survivor count: 5 of 6
dose: 125.0 micrograms/kg/injection, schedule: Q01DX001 (ip), vehicle: saline
  T/C: 132 % of control
dose: 125.0 micrograms/kg/injection, schedule: Q01DX009 (ip), vehicle: other
  survivor count: 1 of 6
dose: 125.0 micrograms/kg/injection, schedule: Q01DX009 (ip), vehicle: saline
  survivor count: 5 of 10
dose: 160.0 micrograms/kg/injection, schedule: Q01DX001 (ip), vehicle: saline
  T/C: 129 % of control
dose: 250.0 micrograms/kg/injection, schedule: Q01DX009 (ip), vehicle: other
  survivor count: 4 of 6
dose: 250.0 micrograms/kg/injection, schedule: Q01DX009 (ip), vehicle: saline
  survivor count: 0 of 10
dose: 250.0 micrograms/kg/injection, schedule: Q04DX003 (ip), vehicle: saline
  survivor count: 8 of 10
dose: 250.0 micrograms/kg/injection, schedule: Q08DX002 (ip), vehicle: saline
  T/C: 140 % of control [7 of 10 alive]
dose: 320.0 micrograms/kg/injection, schedule: Q01DX001 (ip), vehicle: saline
  T/C: 138 % of control
dose: 500.0 micrograms/kg/injection, schedule: Q01DX001 (ip), vehicle: saline
  survivor count: 2 of 10, 4 of 6, 5 of 6
dose: 500.0 micrograms/kg/injection, schedule: Q01DX009 (ip), vehicle: saline
  survivor count: 0 of 10
dose: 500.0 micrograms/kg/injection, schedule: Q04DX003 (ip), vehicle: saline
  survivor count: 7 of 10
dose: 500.0 micrograms/kg/injection, schedule: Q08DX002 (ip), vehicle: saline
  survivor count: 8 of 10
dose: 640.0 micrograms/kg/injection, schedule: Q01DX001 (ip), vehicle: saline
  T/C: 129 % of control
dose: 1000.0 micrograms/kg/injection, schedule: Q01DX001 (ip), vehicle: saline
  survivor count: 3 of 10
dose: 1000.0 micrograms/kg/injection, schedule: Q01DX009 (ip), vehicle: saline
  survivor count: 0 of 10
dose: 1000.0 micrograms/kg/injection, schedule: Q04DX003 (ip), vehicle: saline
  survivor count: 5 of 10
dose: 1000.0 micrograms/kg/injection, schedule: Q08DX002 (ip), vehicle: saline
  survivor count: 4 of 10

## CCOc1nc(N)c(C(N)=O)cc1C#N
dose: 400.0 mg/kg/injection, schedule: Q04DX003 (ip), vehicle: saline sonified
  survivor count: 0 of 6

## O=c1[nH]c(Nc2ccccc2)c([N+](=O)[O-])c(=O)[nH]1
dose: 150.0 mg/kg/injection, schedule: Q01DX001 (ip), vehicle: Klucel (hydroxypropylcellulose) (HPC)
  survivor count: 0 of 6
dose: 300.0 mg/kg/injection, schedule: Q01DX001 (ip), vehicle: Klucel (hydroxypropylcellulose) (HPC)
  survivor count: 2 of 6

## CNC(=O)Nc1nc2ccccc2s1
dose: 200.0 mg/kg/injection, schedule: Q04DX002 (ip), vehicle: Klucel (hydroxypropylcellulose) (HPC)
  survivor count: 3 of 3

## CC(CO)NC(=O)C1C=C2c3cccc4[nH]cc(c34)CC2N(C)C1 (stereo not drawn)
dose: 400.0 mg/kg/injection, schedule: Q04DX003 (ip), vehicle: saline
  survivor count: 3 of 6

Source: PubChem BioAssay AID248 (DTP/NCI, 2004)
